Results are given in words; binding and its absence hold for the method and conditions named. Binding seen in cells or lysates may run through a third protein. Binding calls can cover weak binding; strength is not graded here.
Molecular target: Lpd-EGFP fusion protein (human Lamellipodin) (human) (UniProt Q70E73)
Experiment: co-IP

The chains behind the UniProt entries cited, without tags or fusion partners.
UniProt Q70E73: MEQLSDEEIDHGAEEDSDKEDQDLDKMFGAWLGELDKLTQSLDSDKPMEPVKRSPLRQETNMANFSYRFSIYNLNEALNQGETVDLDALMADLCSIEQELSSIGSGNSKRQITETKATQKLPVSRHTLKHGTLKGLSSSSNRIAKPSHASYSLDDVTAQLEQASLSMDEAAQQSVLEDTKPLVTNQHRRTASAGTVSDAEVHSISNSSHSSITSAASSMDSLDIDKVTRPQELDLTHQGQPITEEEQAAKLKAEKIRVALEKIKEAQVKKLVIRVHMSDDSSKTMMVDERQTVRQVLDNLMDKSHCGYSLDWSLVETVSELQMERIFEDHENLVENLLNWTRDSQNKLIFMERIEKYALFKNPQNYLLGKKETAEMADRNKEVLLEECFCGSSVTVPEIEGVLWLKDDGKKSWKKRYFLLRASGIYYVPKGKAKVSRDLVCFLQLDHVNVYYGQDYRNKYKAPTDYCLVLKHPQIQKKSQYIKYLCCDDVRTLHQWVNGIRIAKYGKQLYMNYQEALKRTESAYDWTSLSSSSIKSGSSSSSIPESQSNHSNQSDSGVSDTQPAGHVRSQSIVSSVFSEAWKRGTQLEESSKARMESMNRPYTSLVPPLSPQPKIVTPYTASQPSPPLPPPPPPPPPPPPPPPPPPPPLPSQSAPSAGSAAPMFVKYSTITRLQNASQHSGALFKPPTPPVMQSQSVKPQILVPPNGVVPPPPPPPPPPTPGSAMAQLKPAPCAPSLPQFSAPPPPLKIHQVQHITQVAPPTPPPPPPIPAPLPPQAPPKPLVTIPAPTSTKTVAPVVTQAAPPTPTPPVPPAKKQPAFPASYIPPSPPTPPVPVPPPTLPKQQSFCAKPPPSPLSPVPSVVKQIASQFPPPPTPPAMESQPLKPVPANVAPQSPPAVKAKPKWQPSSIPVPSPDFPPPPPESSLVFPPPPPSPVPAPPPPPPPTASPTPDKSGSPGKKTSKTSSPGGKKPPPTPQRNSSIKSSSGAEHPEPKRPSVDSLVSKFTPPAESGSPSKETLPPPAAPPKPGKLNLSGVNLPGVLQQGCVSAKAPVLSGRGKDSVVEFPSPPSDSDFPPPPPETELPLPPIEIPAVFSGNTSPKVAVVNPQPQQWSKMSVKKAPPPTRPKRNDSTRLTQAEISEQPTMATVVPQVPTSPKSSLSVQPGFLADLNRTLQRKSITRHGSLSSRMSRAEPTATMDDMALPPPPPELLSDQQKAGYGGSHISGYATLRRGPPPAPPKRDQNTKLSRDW

binding: binds
Substance: Myc-Mena (murine) (from UniProt Q03173-3)
